According to PubChem BioAssay AID493014 (National Center for Advancing Translational Sciences (NCATS), 2011):
Screen size: about 340,000 compounds; about 170 (0.05%) were called active. Inconclusive results, whose numbers are uncertain, are shown with a selection of clear calls. Calls follow the shape of the dose curve; as a rule, active = well fitted inhibition curve with a large enough effect in the signal ratio, with a control signal flat (not every such curve was filed as active); inconclusive = small, poorly fitted or top-dose-only effect, or effect the other way, or a change in a side signal; inactive = flat fitted curve, though single readings scatter; the % refers to the signal ratio. Potencies of inconclusive entries are doubtful fits and often do not repeat.

Experiment: qHTS Assay to Find Inhibitors of Chronic Active B-Cell Receptor Signaling;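 as to activity change, negative = inhibition: plate controls were basal doxycycline-induced cells for no effect and cells given 10 µM MG132 for full effect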
Settings: ABC-DLBCL IkBa-CBG/CBR reporter, luminescence ratio (green luciferase fused to IkBa over red control in TMD8 lymphoma cells), 4 h; activity change, negative = inhibition: at 46.1 µM (top of the series) unless noted
In short: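 Doxycycline induced both beetle luciferases in TMD8 lymphoma cells; IKK-driven degradation limits the IkappaBalpha-fused green signal, while red luminescence normalises for cell number and nonspecific effects. Compounds tested up to 46 uM, 4 hrs.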
Potency is read from the fitted curve at half-maximal effect.

Compound	activity change, negative = inhibition	Potency
COCC1CCN(C(=O)c2cc(COc3ccc(F)cc3F)on2)C1 (stereo not drawn)	inactive	–
CC(C)OCCCNC(=O)CCN1C(=O)COc2ccccc21	inconclusive: -2.23%	–
Cc1ccc(C(=O)Nc2cccc(NC(=O)c3cccs3)c2)c(C)c1	inconclusive: -27.4%	–
COc1cc(NS(=O)(=O)c2ccc(C)cc2)c2ncccc2c1	–	inconclusive: 2.06 µM [cytotoxic, full curve]
Cc1ccc(/C=N/NC(=O)c2ccc(OC3CCCC3)cc2)o1	inconclusive: -0.33%	–
N#C/C=C(/N)c1ccc(Br)cc1	–	inconclusive: 10.3 µM [rising, partial curve, poor fit]
O=C(Nc1ccc(Oc2cccnc2)cc1)C1CCN(Cc2cc(Cl)ccc2O)CC1	inconclusive: -2.37%	–
c1ccc(-c2cn(-c3ccccc3)c3ncnc(NCCCN4CCOCC4)c23)cc1	inactive	–
Nc1nc(Nc2ccccc2Cl)cc(=O)[nH]1	inconclusive: -3.45%	–
Cc1ccccc1NS(=O)(=O)c1ccc(C(=O)NCC(c2ccco2)N(C)C)cc1 (stereo not drawn)	inactive	–
COCCNC(=O)c1cccc(Nc2nc(-c3ccccc3)c3cc(Cl)ccc3n2)c1	inconclusive: 16.1%	–
Cc1ccsc1C(=O)NNC(=O)c1csc(N2CCOCC2)n1	–	inconclusive: 20.6 µM [falling, single point]
CC1(C)OC(=O)N(c2ccccc2)C12C=Cc1cc(Br)ccc1O2 (stereo not drawn)	inconclusive: -0.657%	–
Cc1ccsc1CNCc1cc(Cl)ccc1O	inconclusive: 3.72%	–
CC1CCCC(NC(=O)c2cc(S(=O)(=O)N3CCCCC3)ccc2Cl)C1C (stereo not drawn)	inconclusive: -5.89%	–
CCCC[C@]12Cc3cc(C#N)ccc3C(O1)c1c(cc(C)n(Cc3ccccc3)c1=O)O2	inconclusive: 23.5% [at 9.22 µM]	–
COc1ccc(C(=O)NC(=S)NNC(=O)c2ccc(O)cc2)cc1[N+](=O)[O-]	inconclusive: 373%	–
Cc1ccc(C)c(S(=O)(=O)Nc2ccccc2C(=O)Nc2ccc(S(=O)(=O)Nc3ncccn3)cc2)c1	inactive	–
CN(CC(=O)Nc1ccc(Cl)cc1)CC(=O)Nc1ccc(F)c(F)c1F	inconclusive: -5.59%	–
COc1ccccc1N(CC(=O)NCCSc1ccccc1)S(C)(=O)=O	inactive	–
CC(=O)CC(=O)Nc1ccn(-c2ccccc2)n1	–	inconclusive: 29.1 µM [falling, single point]
COc1cccc2cc(-c3nc(-c4cccs4)cs3)c(=O)oc12	inconclusive: -19.3%	–
Cc1ccccc1N=C1c2ccccc2C(=O)C1[N+](=O)[O-] (stereo not drawn)	–	inconclusive: 22.4 µM [falling, single point]

Three structures out of the list, sorted by SMILES length, smallest number first:
Compound	activity change, negative = inhibition	Potency
Cc1ccc(/C=N/NC(=O)c2ccc(OC3CCCC3)cc2)o1	inconclusive: -0.33%	–
c1ccc(-c2cn(-c3ccccc3)c3ncnc(NCCCN4CCOCC4)c23)cc1	inactive	–
COCCNC(=O)c1cccc(Nc2nc(-c3ccccc3)c3cc(Cl)ccc3n2)c1	inconclusive: 16.1%	–
